{"sequences": {"note": "By UniProt entry, the sequences of proteins in these tests, tags left out. Where a name states a change or a piece, a line headed by the entry shows the natural chain unless it says otherwise.", "UniProt Q5TCQ9": "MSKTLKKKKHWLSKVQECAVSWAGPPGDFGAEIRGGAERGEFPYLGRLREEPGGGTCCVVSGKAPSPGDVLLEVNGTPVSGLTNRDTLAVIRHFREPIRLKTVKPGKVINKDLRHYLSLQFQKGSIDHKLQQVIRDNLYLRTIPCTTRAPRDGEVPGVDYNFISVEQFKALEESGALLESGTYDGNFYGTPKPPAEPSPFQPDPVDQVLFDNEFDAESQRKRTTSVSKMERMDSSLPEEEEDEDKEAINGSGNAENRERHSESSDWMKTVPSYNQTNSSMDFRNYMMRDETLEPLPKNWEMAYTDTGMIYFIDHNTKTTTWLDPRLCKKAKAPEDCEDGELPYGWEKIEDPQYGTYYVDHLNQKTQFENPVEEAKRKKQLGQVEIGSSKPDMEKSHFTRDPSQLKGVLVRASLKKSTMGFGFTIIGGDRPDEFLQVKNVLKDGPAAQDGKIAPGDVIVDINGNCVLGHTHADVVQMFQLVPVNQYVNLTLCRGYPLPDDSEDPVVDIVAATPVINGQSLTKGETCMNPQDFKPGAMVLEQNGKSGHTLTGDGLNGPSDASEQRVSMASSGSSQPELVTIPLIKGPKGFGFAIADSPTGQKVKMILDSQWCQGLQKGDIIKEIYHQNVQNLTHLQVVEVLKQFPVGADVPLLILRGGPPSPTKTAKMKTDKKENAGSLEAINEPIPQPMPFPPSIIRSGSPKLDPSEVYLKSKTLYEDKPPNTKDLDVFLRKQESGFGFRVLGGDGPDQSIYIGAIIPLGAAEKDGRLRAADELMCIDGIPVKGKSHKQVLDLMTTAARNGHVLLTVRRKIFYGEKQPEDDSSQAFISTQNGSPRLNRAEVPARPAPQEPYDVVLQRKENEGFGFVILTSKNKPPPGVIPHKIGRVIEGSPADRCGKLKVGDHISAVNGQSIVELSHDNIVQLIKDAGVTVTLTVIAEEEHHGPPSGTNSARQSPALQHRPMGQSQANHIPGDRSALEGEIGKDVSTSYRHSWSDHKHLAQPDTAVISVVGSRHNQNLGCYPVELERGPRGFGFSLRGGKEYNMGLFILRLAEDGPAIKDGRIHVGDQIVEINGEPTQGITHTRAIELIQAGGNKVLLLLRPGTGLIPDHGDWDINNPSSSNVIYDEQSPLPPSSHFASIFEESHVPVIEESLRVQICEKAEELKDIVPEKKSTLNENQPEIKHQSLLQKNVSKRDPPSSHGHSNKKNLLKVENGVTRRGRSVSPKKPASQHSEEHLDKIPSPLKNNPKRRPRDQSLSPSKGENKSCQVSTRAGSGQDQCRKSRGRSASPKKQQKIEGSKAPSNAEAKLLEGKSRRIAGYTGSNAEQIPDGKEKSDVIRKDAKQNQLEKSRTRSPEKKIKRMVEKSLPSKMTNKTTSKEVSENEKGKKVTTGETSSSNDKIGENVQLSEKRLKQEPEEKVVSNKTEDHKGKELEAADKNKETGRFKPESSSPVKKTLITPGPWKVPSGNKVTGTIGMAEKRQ", "UniProt O60476": "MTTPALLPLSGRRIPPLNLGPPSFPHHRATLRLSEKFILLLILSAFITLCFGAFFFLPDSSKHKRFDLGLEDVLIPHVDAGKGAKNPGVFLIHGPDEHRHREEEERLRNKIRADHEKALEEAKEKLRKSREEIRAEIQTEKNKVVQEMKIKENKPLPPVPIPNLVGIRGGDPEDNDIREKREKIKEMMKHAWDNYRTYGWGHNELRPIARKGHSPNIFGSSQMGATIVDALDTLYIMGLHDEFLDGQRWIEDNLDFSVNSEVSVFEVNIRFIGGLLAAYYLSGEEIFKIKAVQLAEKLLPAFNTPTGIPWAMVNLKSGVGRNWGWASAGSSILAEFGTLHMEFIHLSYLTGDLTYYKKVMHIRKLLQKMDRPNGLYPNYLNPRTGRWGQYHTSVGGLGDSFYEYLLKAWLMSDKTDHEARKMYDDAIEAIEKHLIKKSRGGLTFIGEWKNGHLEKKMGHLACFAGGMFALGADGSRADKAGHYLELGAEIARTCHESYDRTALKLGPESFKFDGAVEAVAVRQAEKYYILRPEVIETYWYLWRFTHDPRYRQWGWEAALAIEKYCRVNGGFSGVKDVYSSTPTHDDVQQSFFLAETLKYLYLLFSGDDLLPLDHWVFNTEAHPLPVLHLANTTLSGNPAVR", "UniProt Q8IZL2, whole entry, looked up": "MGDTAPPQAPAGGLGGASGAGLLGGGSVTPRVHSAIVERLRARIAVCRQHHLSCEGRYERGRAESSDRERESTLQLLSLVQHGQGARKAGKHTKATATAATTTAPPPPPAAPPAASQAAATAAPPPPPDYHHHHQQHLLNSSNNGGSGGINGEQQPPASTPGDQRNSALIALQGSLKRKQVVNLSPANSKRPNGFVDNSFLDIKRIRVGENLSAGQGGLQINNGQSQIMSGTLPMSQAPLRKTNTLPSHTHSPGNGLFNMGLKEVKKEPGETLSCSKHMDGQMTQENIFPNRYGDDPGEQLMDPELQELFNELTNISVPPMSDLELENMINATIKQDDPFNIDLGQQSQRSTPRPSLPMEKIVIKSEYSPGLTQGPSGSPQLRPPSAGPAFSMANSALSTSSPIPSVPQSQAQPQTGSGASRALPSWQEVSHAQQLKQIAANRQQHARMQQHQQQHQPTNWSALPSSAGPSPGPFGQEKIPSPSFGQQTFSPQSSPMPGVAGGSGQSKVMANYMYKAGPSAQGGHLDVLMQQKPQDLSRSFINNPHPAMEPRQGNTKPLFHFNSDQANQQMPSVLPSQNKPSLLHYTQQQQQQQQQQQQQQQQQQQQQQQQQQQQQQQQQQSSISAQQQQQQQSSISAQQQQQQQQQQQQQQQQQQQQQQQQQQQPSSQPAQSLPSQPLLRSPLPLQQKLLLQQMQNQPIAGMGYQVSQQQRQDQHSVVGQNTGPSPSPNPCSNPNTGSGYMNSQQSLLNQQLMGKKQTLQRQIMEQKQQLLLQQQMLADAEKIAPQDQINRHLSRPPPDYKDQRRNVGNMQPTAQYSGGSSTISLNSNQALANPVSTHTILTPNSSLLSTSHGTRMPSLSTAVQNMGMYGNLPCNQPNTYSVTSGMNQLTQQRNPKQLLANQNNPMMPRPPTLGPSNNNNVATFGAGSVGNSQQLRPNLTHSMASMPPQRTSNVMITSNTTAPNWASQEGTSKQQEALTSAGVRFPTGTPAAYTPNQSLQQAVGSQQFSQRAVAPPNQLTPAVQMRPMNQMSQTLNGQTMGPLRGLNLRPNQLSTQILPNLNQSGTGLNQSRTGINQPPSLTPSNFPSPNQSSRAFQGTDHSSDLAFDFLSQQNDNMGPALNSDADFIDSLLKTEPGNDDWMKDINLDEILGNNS", "UniProt Q9BQ69": "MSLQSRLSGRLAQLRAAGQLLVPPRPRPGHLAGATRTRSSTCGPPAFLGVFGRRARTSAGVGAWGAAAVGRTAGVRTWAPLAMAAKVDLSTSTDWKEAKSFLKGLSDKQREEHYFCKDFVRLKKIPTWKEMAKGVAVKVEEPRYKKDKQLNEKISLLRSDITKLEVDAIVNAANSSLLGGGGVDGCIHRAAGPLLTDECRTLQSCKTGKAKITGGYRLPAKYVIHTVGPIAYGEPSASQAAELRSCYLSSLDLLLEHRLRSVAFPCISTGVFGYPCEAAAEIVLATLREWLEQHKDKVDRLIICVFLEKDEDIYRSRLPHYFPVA", "UniProt Q5U5X0": "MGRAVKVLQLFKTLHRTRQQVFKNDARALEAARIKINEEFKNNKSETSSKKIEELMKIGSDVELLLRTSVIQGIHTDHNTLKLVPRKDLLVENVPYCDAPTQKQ", "UniProt Q8IW41": "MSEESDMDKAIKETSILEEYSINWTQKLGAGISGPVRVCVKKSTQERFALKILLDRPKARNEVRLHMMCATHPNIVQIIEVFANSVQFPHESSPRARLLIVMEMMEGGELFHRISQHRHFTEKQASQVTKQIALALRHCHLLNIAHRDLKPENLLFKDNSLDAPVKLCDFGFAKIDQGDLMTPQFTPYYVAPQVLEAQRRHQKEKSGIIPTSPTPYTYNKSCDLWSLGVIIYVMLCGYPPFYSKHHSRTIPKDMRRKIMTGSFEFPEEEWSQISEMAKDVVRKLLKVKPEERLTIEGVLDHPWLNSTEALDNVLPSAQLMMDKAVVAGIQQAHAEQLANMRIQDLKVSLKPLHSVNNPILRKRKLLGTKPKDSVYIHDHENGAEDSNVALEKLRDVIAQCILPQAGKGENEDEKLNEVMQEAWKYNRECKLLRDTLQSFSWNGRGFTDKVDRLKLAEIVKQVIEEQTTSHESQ", "UniProt O95372": "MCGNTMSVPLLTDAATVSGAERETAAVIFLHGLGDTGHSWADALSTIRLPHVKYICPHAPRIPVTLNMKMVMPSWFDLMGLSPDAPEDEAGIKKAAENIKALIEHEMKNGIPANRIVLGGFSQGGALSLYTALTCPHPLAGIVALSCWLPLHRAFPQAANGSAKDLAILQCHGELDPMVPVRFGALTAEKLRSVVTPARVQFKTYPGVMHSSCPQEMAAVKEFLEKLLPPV", "UniProt P31153, whole entry, looked up": "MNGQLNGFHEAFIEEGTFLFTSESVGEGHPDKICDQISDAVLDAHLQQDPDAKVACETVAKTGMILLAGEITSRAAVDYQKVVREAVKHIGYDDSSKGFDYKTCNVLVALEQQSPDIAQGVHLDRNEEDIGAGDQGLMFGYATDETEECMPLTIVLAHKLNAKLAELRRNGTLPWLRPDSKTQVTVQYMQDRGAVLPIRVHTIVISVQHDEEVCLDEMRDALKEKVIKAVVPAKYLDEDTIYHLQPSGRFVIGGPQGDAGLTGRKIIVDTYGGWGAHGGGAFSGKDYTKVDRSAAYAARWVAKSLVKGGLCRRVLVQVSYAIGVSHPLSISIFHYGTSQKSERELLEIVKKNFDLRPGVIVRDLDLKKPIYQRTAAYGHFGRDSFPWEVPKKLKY", "UniProt P43362": "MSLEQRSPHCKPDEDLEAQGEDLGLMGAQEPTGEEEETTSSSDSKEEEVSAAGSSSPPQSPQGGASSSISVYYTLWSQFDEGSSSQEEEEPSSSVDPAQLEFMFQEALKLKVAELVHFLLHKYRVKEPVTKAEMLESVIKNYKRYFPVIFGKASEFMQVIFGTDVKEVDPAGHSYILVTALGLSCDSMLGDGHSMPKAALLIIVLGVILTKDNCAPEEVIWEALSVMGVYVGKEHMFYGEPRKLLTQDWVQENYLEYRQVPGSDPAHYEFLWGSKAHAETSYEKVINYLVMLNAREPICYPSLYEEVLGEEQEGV", "UniProt Q9HD34": "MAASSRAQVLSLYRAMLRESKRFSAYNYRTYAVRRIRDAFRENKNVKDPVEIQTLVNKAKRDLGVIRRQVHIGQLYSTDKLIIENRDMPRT", "UniProt Q9BSK0": "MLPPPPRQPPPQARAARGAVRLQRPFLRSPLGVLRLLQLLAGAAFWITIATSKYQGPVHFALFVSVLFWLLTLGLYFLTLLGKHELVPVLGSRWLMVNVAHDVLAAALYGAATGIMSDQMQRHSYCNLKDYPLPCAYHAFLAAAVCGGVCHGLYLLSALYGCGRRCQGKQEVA", "UniProt Q9P0L2": "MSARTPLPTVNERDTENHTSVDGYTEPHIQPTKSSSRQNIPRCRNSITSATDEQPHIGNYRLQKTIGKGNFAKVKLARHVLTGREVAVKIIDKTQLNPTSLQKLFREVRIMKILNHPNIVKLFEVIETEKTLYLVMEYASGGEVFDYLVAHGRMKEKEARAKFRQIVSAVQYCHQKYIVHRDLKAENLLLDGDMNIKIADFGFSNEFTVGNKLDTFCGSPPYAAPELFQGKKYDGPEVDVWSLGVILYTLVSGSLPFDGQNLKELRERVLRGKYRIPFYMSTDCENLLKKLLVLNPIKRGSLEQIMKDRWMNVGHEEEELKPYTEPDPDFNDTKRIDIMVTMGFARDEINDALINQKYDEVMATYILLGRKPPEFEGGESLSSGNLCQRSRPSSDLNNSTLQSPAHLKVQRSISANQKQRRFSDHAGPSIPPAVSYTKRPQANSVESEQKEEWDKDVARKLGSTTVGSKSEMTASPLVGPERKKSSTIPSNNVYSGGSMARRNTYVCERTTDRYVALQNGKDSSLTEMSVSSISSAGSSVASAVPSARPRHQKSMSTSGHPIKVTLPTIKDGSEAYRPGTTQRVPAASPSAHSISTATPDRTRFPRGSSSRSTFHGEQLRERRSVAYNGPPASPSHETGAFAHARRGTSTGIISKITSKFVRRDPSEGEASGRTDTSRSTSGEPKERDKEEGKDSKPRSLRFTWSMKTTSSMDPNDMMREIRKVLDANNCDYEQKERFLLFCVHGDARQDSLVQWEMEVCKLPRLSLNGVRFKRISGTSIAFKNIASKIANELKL"}, "source": "the supplement of paper PMC10849652", "note": "The other results are listed elsewhere or left out."}
{"compound": "C1=CC=C(C=C1)[C@H](COC2=CC3=C(C=C2)NC(=O)N3)NC(=O)C4=CC=CN(C4=O)CC5=CC(=C(C=C5)F)F", "assay": "log2 fold change, soluble protein after heating vs DMSO (PISA); higher = thermal stabilisation; K562 lysate, 10 uM; active = over 0.2 and 3.5 SD of the protein, either way, in both replicates (recomputed)", "in_short": "(§1)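 To prepare the extract, K562 pellets were dounce-homogenised in PBS pH 7.4 with 1 mM MgCl2, giving crude material at 1 mg/mL protein. This was treated with 10 μM compound for 30 min, then heated in aliquots for 3 min over 48°C-58°C before pooling and addition of NP-40 to 0.5% at 4°C. Centrifugation at 21,000xg for 90 min left soluble protein in the supernatant, which TMTpro 16plex LC-MS/MS quantified with equalised channel sums. Results are log-two fold changes in thermal stability compared with solvent controls, from duplicates.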"}
{"target": "MAD1L1 (UniProt Q9Y6D9)", "log2 fold change": "inactive: 0.072"}
{"target": "MAGI3 isoform 1 (UniProt Q5TCQ9)", "log2 fold change": "inactive: 0.115"}
{"target": "MAN1A2 (UniProt O60476)", "log2 fold change": "inactive: -0.019"}
{"target": "MAML2 (UniProt Q8IZL2)", "log2 fold change": "inactive: -0.045"}
{"target": "MAP4K4 isoform 3 (UniProt O95819)", "log2 fold change": "inactive: 0.022"}
{"target": "MAP1S (UniProt Q66K74)", "log2 fold change": "inactive: 0.029"}
{"target": "MARK2 (UniProt E9PC69)", "log2 fold change": "inactive: 0.003"}
{"target": "MACF1 (UniProt H3BQK9)", "log2 fold change": "inactive: -0.029"}
{"target": "MACROD1 (UniProt Q9BQ69)", "log2 fold change": "inactive: 0.048"}
{"target": "MARS (UniProt P56192)", "log2 fold change": "inactive: -0.019"}
{"target": "LYRM7 (UniProt Q5U5X0)", "log2 fold change": "inactive: 0.036"}
{"target": "LYAR (UniProt Q9NX58)", "log2 fold change": "inactive: 0.051"}
{"target": "MAPKAPK5 (UniProt Q8IW41)", "log2 fold change": "inactive: 0.034"}
{"target": "LYPLA2 (UniProt O95372)", "log2 fold change": "inactive: -0.14"}
{"target": "LZTS2 (UniProt Q9BRK4)", "log2 fold change": "inactive: -0.058"}
{"target": "MAP7 (UniProt Q14244)", "log2 fold change": "inactive: 0.056"}
{"target": "MAN2A2 (UniProt P49641)", "log2 fold change": "inactive: -0.034"}
{"target": "MAK16 (UniProt Q9BXY0)", "log2 fold change": "inactive: -0.02"}
{"target": "MAT2A (UniProt P31153)", "log2 fold change": "inactive: 0.042"}
{"target": "MALSU1 (UniProt Q96EH3)", "log2 fold change": "inactive: -0.008"}
{"target": "MAP4 isoform 5 (UniProt P27816)", "log2 fold change": "inactive: -0.065"}
{"target": "MAPK11 (UniProt Q15759)", "log2 fold change": "inactive: -0.044"}
{"target": "MAGEA9 (UniProt P43362)", "log2 fold change": "inactive: -0.008"}
{"target": "LYRM4 (UniProt Q9HD34)", "log2 fold change": "inactive: -0.03"}
{"target": "MARVELD1 (UniProt Q9BSK0)", "log2 fold change": "inactive: -0.146"}
{"target": "LYSMD3 (UniProt Q7Z3D4)", "log2 fold change": "inactive: 0.031"}
{"target": "MAPK14 (UniProt Q16539)", "log2 fold change": "inactive: 0.007"}
{"target": "MAP3K20 (UniProt Q9NYL2)", "log2 fold change": "inactive: 0.024"}
{"target": "MAN2B1 (UniProt O00754)", "log2 fold change": "inactive: 0.006"}
{"target": "MACF1, A0A0A6YYJ5", "log2 fold change": "inactive: -0.048"}
{"target": "MARCKS (UniProt P29966)", "log2 fold change": "inactive: 0.044"}
{"target": "MARK1 (UniProt Q9P0L2)", "log2 fold change": "inactive: -0.034"}
{"compound": "CC1=C(SC2=C1C(=N[C@H](C3=NN=C(N32)C)CC(=O)N)C4=CC=C(C=C4)Cl)C", "assay": "log2 fold change, soluble protein after heating vs DMSO (PISA); higher = thermal stabilisation; K562 lysate, 10 uM; active = over 0.2 and 3.5 SD of the protein, either way, in both replicates (recomputed)", "in_short": "as §1"}
{"target": "MAD1L1 (UniProt Q9Y6D9)", "log2 fold change": "inactive: -0.04"}
{"target": "MAGI3 isoform 1 (UniProt Q5TCQ9)", "log2 fold change": "inactive: 0.025"}
{"target": "MAN1A2 (UniProt O60476)", "log2 fold change": "inactive: 0.035"}
{"target": "MAML2 (UniProt Q8IZL2)", "log2 fold change": "inactive: -0.101"}
{"target": "MAP4K4 isoform 3 (UniProt O95819)", "log2 fold change": "inactive: 0.029"}
{"target": "MAP1S (UniProt Q66K74)", "log2 fold change": "inactive: 0.011"}
{"target": "MARK2 (UniProt E9PC69)", "log2 fold change": "inactive: -0.004"}
{"target": "MACF1 (UniProt H3BQK9)", "log2 fold change": "inactive: -0.004"}
{"target": "MACROD1 (UniProt Q9BQ69)", "log2 fold change": "inactive: 0.022"}
{"target": "MARS (UniProt P56192)", "log2 fold change": "inactive: 0.013"}
{"target": "LYRM7 (UniProt Q5U5X0)", "log2 fold change": "inactive: 0.06"}
{"target": "LYAR (UniProt Q9NX58)", "log2 fold change": "inactive: 0.015"}
{"target": "MAPKAPK5 (UniProt Q8IW41)", "log2 fold change": "inactive: 0.027"}
{"target": "LYPLA2 (UniProt O95372)", "log2 fold change": "inactive: -0.069"}
{"target": "LZTS2 (UniProt Q9BRK4)", "log2 fold change": "inactive: -0.09"}
{"target": "MAP7 (UniProt Q14244)", "log2 fold change": "inactive: -0.082"}
{"target": "MAN2A2 (UniProt P49641)", "log2 fold change": "inactive: -0.055"}
{"target": "MAK16 (UniProt Q9BXY0)", "log2 fold change": "inactive: 0.001"}
{"target": "MAT2A (UniProt P31153)", "log2 fold change": "inactive: 0.002"}
{"target": "MALSU1 (UniProt Q96EH3)", "log2 fold change": "inactive: 0.048"}
{"target": "MAP4 isoform 5 (UniProt P27816)", "log2 fold change": "inactive: 0.099"}
{"target": "MAPK11 (UniProt Q15759)", "log2 fold change": "inactive: -0.036"}
{"target": "MAGEA9 (UniProt P43362)", "log2 fold change": "inactive: 0.07"}
{"target": "LYRM4 (UniProt Q9HD34)", "log2 fold change": "inactive: 0.074"}
{"target": "MARVELD1 (UniProt Q9BSK0)", "log2 fold change": "inactive: -0.029"}
{"target": "LYSMD3 (UniProt Q7Z3D4)", "log2 fold change": "inactive: 0.063"}
{"target": "MAPK14 (UniProt Q16539)", "log2 fold change": "inactive: 0.024"}
{"target": "MAP3K20 (UniProt Q9NYL2)", "log2 fold change": "inactive: 0.023"}
{"target": "MAN2B1 (UniProt O00754)", "log2 fold change": "inactive: 0.013"}
{"target": "MACF1, A0A0A6YYJ5", "log2 fold change": "inactive: -0.032"}
{"target": "MARCKS (UniProt P29966)", "log2 fold change": "inactive: 0.002"}
{"target": "MARK1 (UniProt Q9P0L2)", "log2 fold change": "inactive: 0.036"}
{"compound": "CC1=C2C(=CC=C1)N=C(N(C2=O)C3=CC=CC=C3C)CN4C=NC5=C(N=CN=C54)N", "assay": "log2 fold change, soluble protein after heating vs DMSO (PISA); higher = thermal stabilisation; K562 lysate, 10 uM; active = over 0.2 and 3.5 SD of the protein, either way, in both replicates (recomputed)", "in_short": "as §1"}
{"target": "MAD1L1 (UniProt Q9Y6D9)", "log2 fold change": "inactive: 0.021"}
{"target": "MAGI3 isoform 1 (UniProt Q5TCQ9)", "log2 fold change": "inactive: 0.097"}
{"target": "MAN1A2 (UniProt O60476)", "log2 fold change": "inactive: 0.037"}
{"target": "MAML2 (UniProt Q8IZL2)", "log2 fold change": "inactive: 0.012"}
{"target": "MAP4K4 isoform 3 (UniProt O95819)", "log2 fold change": "inactive: 0.015"}
{"target": "MAP1S (UniProt Q66K74)", "log2 fold change": "inactive: 0.021"}
{"target": "MARK2 (UniProt E9PC69)", "log2 fold change": "inactive: 0.071"}
{"target": "MACF1 (UniProt H3BQK9)", "log2 fold change": "inactive: 0.025"}
{"target": "MACROD1 (UniProt Q9BQ69)", "log2 fold change": "inactive: 0.004"}
{"target": "MARS (UniProt P56192)", "log2 fold change": "inactive: 0.011"}
{"target": "LYRM7 (UniProt Q5U5X0)", "log2 fold change": "inactive: -0.022"}
{"target": "LYAR (UniProt Q9NX58)", "log2 fold change": "inactive: -0.006"}
{"target": "MAPKAPK5 (UniProt Q8IW41)", "log2 fold change": "inactive: 0.014"}
{"target": "LYPLA2 (UniProt O95372)", "log2 fold change": "inactive: 0.099"}
{"target": "LZTS2 (UniProt Q9BRK4)", "log2 fold change": "inactive: 0.031"}
{"target": "MAP7 (UniProt Q14244)", "log2 fold change": "inactive: 0.061"}
{"target": "MAN2A2 (UniProt P49641)", "log2 fold change": "inactive: -0.003"}
{"target": "MAK16 (UniProt Q9BXY0)", "log2 fold change": "inactive: 0.02"}
{"target": "MAT2A (UniProt P31153)", "log2 fold change": "inactive: 0.033"}
{"target": "MALSU1 (UniProt Q96EH3)", "log2 fold change": "inactive: -0.043"}
{"target": "MAP4 isoform 5 (UniProt P27816)", "log2 fold change": "inactive: 0.163"}
{"target": "MAGEA9 (UniProt P43362)", "log2 fold change": "inactive: 0.015"}
{"target": "LYRM4 (UniProt Q9HD34)", "log2 fold change": "inactive: 0.077"}
{"target": "MARVELD1 (UniProt Q9BSK0)", "log2 fold change": "inactive: 0.317"}
{"target": "LYSMD3 (UniProt Q7Z3D4)", "log2 fold change": "inactive: 0.062"}
{"target": "MAPK14 (UniProt Q16539)", "log2 fold change": "inactive: 0.034"}
{"target": "MAP3K20 (UniProt Q9NYL2)", "log2 fold change": "inactive: -0.04"}
{"target": "MAN2B1 (UniProt O00754)", "log2 fold change": "inactive: 0.012"}
{"target": "MACF1, A0A0A6YYJ5", "log2 fold change": "inactive: 0.086"}
{"target": "MARCKS (UniProt P29966)", "log2 fold change": "inactive: 0.014"}
{"target": "MARK1 (UniProt Q9P0L2)", "log2 fold change": "inactive: 0.019"}
